Counter-ions that a name gives are not always drawn. For at least one compound, name, drawing or mass did not settle the structure.
What was measured:
[1] = Absorption spectrum (λmax and monomer/dimer absorbance ratio) as measure of Hp aggregation; type: physicochemical; details: Dihydrochloride; for λ397/λ392 (ratio of monomer to dimer, absorbance at 397 nm/372 nm) / λmax: micelle formulations in water, free Hp in PBS or ethanol; for λ397/λ372 ratio: values in text
[2] = Singlet oxygen generation by RNO bleaching in the presence of histidine; type: physicochemical; details: in PBS with histidine, illuminated

CC1=C(CCC(=O)O)c2cc3[nH]c(cc4nc(cc5[nH]c(cc1n2)c(C)c5C(C)O)C(C)=C4C(C)O)c(C)c3CCC(=O)O (stereo not shown) [Hp, Hematoporphyrin Dihydrochloride]
λ397/λ392 (ratio of monomer to dimer, absorbance at 397 nm/372 nm) [1]: 0.831 ± 0.037
λmax [1]: 372
λ397/λ392 (ratio of monomer to dimer, absorbance at 397 nm/372 nm) ([1]; listed as Hp in ethanol): 1.428 ± 0.014
λmax ([1]; listed as Hp in ethanol): 397
λ397/λ372 ratio ([1]; listed as Hp in PBS): 0.78
λ397/λ372 ratio ([1]; listed as Hp in ethanol): 1.41
rate of RNO photobleaching (singlet oxygen), loss of absorbance at 440 nm [2]: differences between Hp in PBS and in micelle or in lactose-micelle are significant

Source: patent US20100310660A1, “DRY POWDER MICROPARTICLES FOR PULMONARY DELIVERY” (TAIPEI MEDICAL UNIVERSITY, priority 2009, published 2010)
